Results reported in patent publication US20220048884A1, “NRF2 ACTIVATOR” (BIOGEN MA INC., priority 2017, published 2022).
Some entries share one result that the patent states for a list of compounds.

Tested on: NRF2
Experiment: PathHunter Nuclear Translocation assay (DiscoverX), agonist format
Format: cell-based
Conditions: 6 hours incubation, 10 concentrations, 30 μM top concentration
Source text: Vehicle concentration was 1%.
Microplates were read following signal generation with a PerkinElmer Envision™ instrument for chemiluminescent signal detection.

| SMILES | EC50 |
| --- | --- |
| CCn1nnc2c(C)c(C(CC(=O)O)c3ccc4c(c3)CN(C(=O)c3ccncc3)CC4)ccc21 (stereo not drawn) [Example 19, 3-(1-ethyl-4-methyl-1H-benzo[d][1,2,3]triazol-5-yl)-3-(2-isonicotinoyl-1,2,3,4-tetrahydroisoquinolin-7-yl)propanoic acid] | > 10 µM |
| CCn1nnc2c(C)c(C(CC(=O)O)c3ccc4c(c3)CN(C(=O)c3cnn(C)c3)CC4)ccc21 (stereo not drawn) [Example 20, 3-(1-ethyl-4-methyl-1H-benzo[d][1,2,3]triazol-5-yl)-3-(2-(1-methyl-1H-pyrazole-4-carbonyl)-1,2,3,4-tetrahydroisoquinolin-7-yl)propanoic acid] | > 10 µM |
| CCn1nnc2c(C)c(C(CC(=O)O)c3ccc4c(c3)CN(C(=O)c3cscn3)CC4)ccc21 (stereo not drawn) [Example 24, 3-(1-ethyl-4-methyl-1H-benzo[d][1,2,3]triazol-5-yl)-3-(2-(thiazole-4-carbonyl)-1,2,3,4-tetrahydroisoquinolin-7-yl)propanoic acid] | > 10 µM |
| CCn1nnc2c(C)c(C(CC(=O)O)c3ccc4c(c3)CN(C(=O)c3cccc(C)c3C)CC4)ccc21 (stereo not drawn) [Example 27, 3-(2-(2,3-dimethylbenzoyl)-1,2,3,4-tetrahydroisoquinolin-7-yl)-3-(1-ethyl-4-methyl-1H-benzo[d][1,2,3]triazol-5-yl)propanoic acid] | < 1 µM |
| CCc1cccc(CC)c1C(=O)N1CCc2ccc(C(CC(=O)O)c3ccc4c(nnn4CC)c3C)cc2C1 (stereo not drawn) [Example 34, 3-(2-(2,6-diethylbenzoyl)-1,2,3,4-tetrahydroisoquinolin-7-yl)-3-(1-ethyl-4-methyl-1H-benzo[d][1,2,3]triazol-5-yl)propanoic acid] | < 10 µM |
| CCn1nnc2c(C)c(C(CC(=O)O)c3ccc4c(c3)CN(C(=O)C35CC6CC(CC(C6)C3)C5)CC4)ccc21 (stereo not drawn) [Example 36, 3-(2-((3r,5r,7r)-adamantane-1-carbonyl)-1,2,3,4-tetrahydroisoquinolin-7-yl)-3-(1-ethyl-4-methyl-1H-benzo[d][1,2,3]triazol-5-yl)propanoic acid] | < 10 µM |
| CCn1nnc2c(C)c(C(CC(=O)O)c3ccc4c(c3)CN(C(=O)C35CCC(CC3)CC5)CC4)ccc21 (stereo not drawn) [Example 37, 3-(2-(bicyclo[2.2.2]octane-1-carbonyl)-1,2,3,4-tetrahydroisoquinolin-7-yl)-3-(1-ethyl-4-methyl-1H-benzo[d][1,2,3]triazol-5-yl)propanoic acid] | < 10 µM |
| CCn1nnc2c(C)c(C(CC(=O)O)c3ccc4c(c3)CN(C(=O)[C@H]3CC[C@@H](C(F)(F)F)CC3)CC4)ccc21 (stereo partly drawn) [Example 38, 3-(1-ethyl-4-methyl-1H-benzo[d][1,2,3]triazol-5-yl)-3-(2-(cis-4-(trifluoromethyl)cyclohexane-1-carbonyl)-1,2,3,4-tetrahydroisoquinolin-7-yl)propanoic acid] | > 10 µM |

Further lines, results first:

| EC50 | SMILES |
| --- | --- |
| > 10 µM | CCn1nnc2c(C)c(C(CC(=O)O)c3ccc4c(c3)CN(C(=O)c3cnccn3)CC4)ccc21 (stereo not drawn) [Example 15, 3-(1-ethyl-4-methyl-1H-benzo[d][1,2,3]triazol-5-yl)-3-(2-(pyrazine-2-carbonyl)-1,2,3,4-tetrahydroisoquinolin-7-yl)propanoic acid] |
| > 10 µM | CCn1nnc2c(C)c(C(CC(=O)O)c3ccc4c(c3)CN(C(=O)c3ccncn3)CC4)ccc21 (stereo not drawn) [Example 16, 3-(1-ethyl-4-methyl-1H-benzo[d][1,2,3]triazol-5-yl)-3-(2-(pyrimidine-4-carbonyl)-1,2,3,4-tetrahydroisoquinolin-7-yl)propanoic acid] |
| > 10 µM | CCn1nnc2c(C)c(C(CC(=O)O)c3ccc4c(c3)CN(C(=O)c3ccccn3)CC4)ccc21 (stereo not drawn) [Example 17, 3-(1-ethyl-4-methyl-1H-benzo[d][1,2,3]triazol-5-yl)-3-(2-picolinoyl-1,2,3,4-tetrahydroisoquinolin-7-yl)propanoic acid] |
| > 10 µM | CCn1nnc2c(C)c(C(CC(=O)O)c3ccc4c(c3)CN(C(=O)c3cccnc3)CC4)ccc21 (stereo not drawn) [Example 18, 3-(1-ethyl-4-methyl-1H-benzo[d][1,2,3]triazol-5-yl)-3-(2-nicotinoyl-1,2,3,4-tetrahydroisoquinolin-7-yl)propanoic acid] |
| > 10 µM | CCn1nnc2c(C)c(C(CC(=O)O)c3ccc4c(c3)CN(C(=O)c3ccn(C)n3)CC4)ccc21 (stereo not drawn) [Example 21, 3-(1-ethyl-4-methyl-1H-benzo[d][1,2,3]triazol-5-yl)-3-(2-(1-methyl-1H-pyrazole-3-carbonyl)-1,2,3,4-tetrahydroisoquinolin-7-yl)propanoic acid] |
| > 10 µM | CCn1nnc2c(C)c(C(CC(=O)O)c3ccc4c(c3)CN(C(=O)c3cn(C)cn3)CC4)ccc21 (stereo not drawn) [Example 22, 3-(1-ethyl-4-methyl-1H-benzo[d][1,2,3]triazol-5-yl)-3-(2-(1-methyl-1H-imidazole-4-carbonyl)-1,2,3,4-tetrahydroisoquinolin-7-yl)propanoic acid] |
| > 10 µM | CCn1nnc2c(C)c(C(CC(=O)O)c3ccc4c(c3)CN(C(=O)c3ccon3)CC4)ccc21 (stereo not drawn) [Example 23, 3-(1-ethyl-4-methyl-1H-benzo[d][1,2,3]triazol-5-yl)-3-(2-(isoxazole-3-carbonyl)-1,2,3,4-tetrahydroisoquinolin-7-yl)propanoic acid] |
| < 10 µM | CCn1nnc2c(C)c(C(CC(=O)O)c3ccc4c(c3)CN(C(=O)c3cccc(C)c3)CC4)ccc21 (stereo not drawn) [Example 25, 3-(1-ethyl-4-methyl-1H-benzo[d][1,2,3]triazol-5-yl)-3-(2-(3-methylbenzoyl)-1,2,3,4-tetrahydroisoquinolin-7-yl)propanoic acid] |
| < 1 µM | CCn1nnc2c(C)c(C(CC(=O)O)c3ccc4c(c3)CN(C(=O)c3ccc(C)c(C)c3)CC4)ccc21 (stereo not drawn) [Example 26, 3-(2-(3,4-dimethylbenzoyl)-1,2,3,4-tetrahydroisoquinolin-7-yl)-3-(1-ethyl-4-methyl-1H-benzo[d][1,2,3]triazol-5-yl)propanoic acid] |
| < 1 µM | CCn1nnc2c(C)c(C(CC(=O)O)c3ccc4c(c3)CN(C(=O)c3cc(C)cc(C)c3C)CC4)ccc21 (stereo not drawn) [Example 28, 3-(1-ethyl-4-methyl-1H-benzo[d][1,2,3]triazol-5-yl)-3-(2-(2,3,5-trimethylbenzoyl)-1,2,3,4-tetrahydroisoquinolin-7-yl)propanoic acid] |
| < 10 µM | CCc1cc(CC)cc(C(=O)N2CCc3ccc(C(CC(=O)O)c4ccc5c(nnn5CC)c4C)cc3C2)c1 (stereo not drawn) [Example 29, 3-(2-(3,5-diethylbenzoyl)-1,2,3,4-tetrahydroisoquinolin-7-yl)-3-(1-ethyl-4-methyl-1H-benzo[d][1,2,3]triazol-5-yl)propanoic acid] |
| < 10 µM | CCn1nnc2c(C)c(C(CC(=O)O)c3ccc4c(c3)CN(C(=O)c3cc(C)cc(C)c3)CC4)ccc21 (stereo not drawn) [Example 30, 3-(2-(3,5-dimethylbenzoyl)-1,2,3,4-tetrahydroisoquinolin-7-yl)-3-(1-ethyl-4-methyl-1H-benzo[d][1,2,3]triazol-5-yl)propanoic acid] |
| > 10 µM | CCn1nnc2c(C)c(C(CC(=O)O)c3ccc4c(c3)CN(C(=O)c3c(C)cccc3C)CC4)ccc21 (stereo not drawn) [Example 33, 3-(2-(2,6-dimethylbenzoyl)-1,2,3,4-tetrahydroisoquinolin-7-yl)-3-(1-ethyl-4-methyl-1H-benzo[d][1,2,3]triazol-5-yl)propanoic acid] |
